Reference: US20090068182A1 (ARIUS RESEARCH, published 2009)
These are yes or no findings as the source states them, for the method shown. Binding can be weak; no strength is given.

Tests used:
[1] = biological target: AR40A746.2.3 antigen (CD9) in rabbit normal tissues (rabbit); assay: IHC on normal spleen tissue
[2] = biological target: AR40A746.2.3 antigen (CD9) in rabbit normal tissues (rabbit); assay: IHC on normal tissue micro arrays, 5 micrograms/mL

B1: AR40A746.2.3 monoclonal antibody (hybridoma IDAC 141204-01) (antibody, V domains shown)
VH: DVQLQESGPGLVKPSQSLSLTCTVTGYSITSDYAWNWIRQFPGNKLEWMGYISYSGFTNYNPSLKSRISITRDTSKNQFFLQLSSVTTEDTATYFCEGGNYRYSWFPYWGQGTLVTVSA
VL: DIQMTQTTSSLSASLGDRVTISCSASQGISNYLNWYQQKPDGNVKLLIYYTSSLHSGVPSRFSGSGSGTDYSLTISNLEPEDIATYYCQQYSKLPYTFGGGTKLEIKR
notes: also called IDAC 141204-01 antibody; mAR40A746.2.3
[1]
  binding: binds
[2]
  binding: binds
